According to EP1283052A1, “Pharmaceutical composition containing caspase-8 and /or caspase-9 useful for overcoming glucocorticoid- and cancer therapy-induced apoptosis of tumours” (Deutsches Krebsforschungszentrum Stiftung des öffentlichen …, priority 2001, dated 2003):
At least one compound was matched to its structure with a doubt left.

Assays:
[1] = system: caspase-3; assay: Fluorometric caspase-3 activity assay in carcinoma cells; assay type: cell-based, human; conditions: cisplatin in the presence of DEX, Fig. 1c
Method: • (a) Human epidermoid lung cancer cells (P693) were injected into nude mice. At a tumour volume of 500 mm^3 weekly treatment with cisplatin (5mg/kg/week) was started. Cisplatin was injected intraperitoneally in the absence (CIS) or presence (DEX/CIS) of DEX which was added to the drinking water (0.28 mg/L) for the duration of the experiment. […] As controls, tumor growth of xenografts from mice which received neither cisplatin nor DEX (CO) or from mice which received DEX only (DEX) was determined. The tumour volume in each animal was measured at weekly intervals for a period of 5 weeks. Data are presented as the means +/- SD of 6 to 8 animals. • (b) The human cervical carcinoma cell lines HeLa and P5 were γ-irradiated (10 Gy) or treated with cisplatin (2 µg/ml) in the absence (white bars) or presence (black bars) of DEX (1 µM). The percentage of apoptosis was measured in untreated (CO) and stimulated cells by annexin-staining and FACS-analysis at the time points indicated. (c) P5, P693 and human leukemic T cells (CEM) cells were treated with cisplatin (2 µg/ml) in the absence or presence of DEX as indicated. 24 and 48 h following treatment cells were lysed and caspase-3 activity was determined by a fluorescent caspase-3 assay and spectroscopy.

[2] = system: P5 cells; assay: Specific apoptosis in P5 cells stably transfected with pcDNA3 or FADD-DN; assay type: cell-based, human; conditions: 48 h, DEX 1 µM, wildtype and FADD-DN expressing cells; Fig. 2c
Method: • (a) Left: P5 an CEM cells were treated with cisplatin (1-5 µg/ml) in the absence or presence of DEX (1 µM) as indicated. Proteins were extracted and expression of CD95-L, TRAIL or TNF-α was detected by Western blot analysis. The size of the proteins in kDa is indicated. Right: HeLa and P5 were treated with CD95 agonistic antibody αAPO-1 (CD95, 1 µg/ml), recombinant TRAIL protein (TRAIL, 100 ng/ml) or recombinant TNF-α protein (TNF-α, 100 ng/ml) in the absence (white bars) or presence (black bars) of DEX (1 µM). 24 h later the percentage of apoptosis was determined by annexin-staining and FACS-analysis in untreated (CO) and stimulated cells at the time points indicated. • (b) P693 and CEM cells were treated with cisplatin (2 µg/ml) in the absence or presence of DEX as indicated. 24 and 48 h following treatment cells were lysed and caspase-8 activity was determined by a fluorescent caspase-8 assay and spectroscopy. • (c) P5 cells were stable transfected with empty vector (pcDNA3), or pcDNA3 vector encoding dominant negative FADD protein (FADD-DN). Proteins were extracted from both cell lines and expression of wildtype (WT) and FADD-DN (DN) was detected by Western blot. Left: Stable transfected P5 cells were treated with αAPO-1 (1 µg/ml) and 24 h later apoptosis was determined by staining with annexin/propidium iodide and flow-cytometry. […]

## C[C@@H]1C[C@H]2[C@@H]3CCC4=CC(=O)C=C[C@]4(C)[C@@]3(F)[C@@H](O)C[C@]2(C)[C@@]1(O)C(=O)CO [DEX, dexamethasone]
[1]
  caspase-3 activity: completely blocked
[2]
  cisplatin-induced apoptosis: still diminished cisplatin-induced apoptosis at 48 h
